Reference: US11617748B2, “Meclozine derivatives and diclazuril derivatives for use in the prevention and/or the treatment of disorders associated to the inflammation induced by P. acnes” (priority 2016, dated 2023)

System: HaCaT cells
Experiment: MTT cell viability assay on HaCaT keratinocytes
Format: cell-based, human
Details: 24 h pre-treatment (FIG. 8A)
Protocol: Cell culture, pretreatment and stimulation. The immortalized human keratinocyte cell line HaCaT, fibroblast MRC5 were grown in Dulbecco's modified Eagle's medium-Glutamax-I (DMEM) with 1 mM sodium pyruvate. […] DMEM and RPMI were supplemented with 0.1% and 10% heat-inactivated fetal calf serum (Invitrogen), and an antibiotic/antimycotic solution (10 U/ml Pencillin, 10 μg/ml Streptomycin, 0.25 μg/ml Amphoterin) at 37° C. in humidified atmosphere containing 5% CO2 as described (Life Technologie). Primary human keratinocytes (NHDK) and fibroblast (HDF) were grown in the KGM-Gold and in FGM-2 Bullet Kit, respectively, as described by the manufacturer (Lonza). The immortalized cell lines were routinely tested to assess the absence of Mycoplasma infection. Cells, cultivated in 6- or 96-well polystyrene plates, were pretreated with appropriate molecule solution for 1 to 48 h at 37° C. in the dark at the appropriate concentration. Then, for stimulation, cells were incubated for 15 min to 24 h with the P. acnes suspension adjusted at the appropriate concentration at 37° C. in 5% CO2. For experiences using an in vitro model of psoriasis, the primary human keratinocytes (NHDK) were grown in culture medium for 24 hours.
Cell viability assays. […] After thorough mixing, the absorbance was measured at 540 nm.

CCC[C@@H]1C[C@@H](C(=O)N[C@@H]([C@H]2O[C@H](SC)[C@H](O)[C@@H](O)[C@H]2O)[C@H](C)Cl)N(C)C1 [clindamycine]
toxicity at 6.25 μM, in words (MTT): no toxicity
